Test results reported in US20070280947A1.
No constants are given. Whether binding was seen depends on the method and setting. Binding seen in cells or lysates may run through a third protein. Some binding calls cover weakened binding; strength is not graded here.

Amino acid sequences for entries named in this document (tags omitted). A change or cut given only in a name is not applied to a line headed by its entry.
UniProt Q02763: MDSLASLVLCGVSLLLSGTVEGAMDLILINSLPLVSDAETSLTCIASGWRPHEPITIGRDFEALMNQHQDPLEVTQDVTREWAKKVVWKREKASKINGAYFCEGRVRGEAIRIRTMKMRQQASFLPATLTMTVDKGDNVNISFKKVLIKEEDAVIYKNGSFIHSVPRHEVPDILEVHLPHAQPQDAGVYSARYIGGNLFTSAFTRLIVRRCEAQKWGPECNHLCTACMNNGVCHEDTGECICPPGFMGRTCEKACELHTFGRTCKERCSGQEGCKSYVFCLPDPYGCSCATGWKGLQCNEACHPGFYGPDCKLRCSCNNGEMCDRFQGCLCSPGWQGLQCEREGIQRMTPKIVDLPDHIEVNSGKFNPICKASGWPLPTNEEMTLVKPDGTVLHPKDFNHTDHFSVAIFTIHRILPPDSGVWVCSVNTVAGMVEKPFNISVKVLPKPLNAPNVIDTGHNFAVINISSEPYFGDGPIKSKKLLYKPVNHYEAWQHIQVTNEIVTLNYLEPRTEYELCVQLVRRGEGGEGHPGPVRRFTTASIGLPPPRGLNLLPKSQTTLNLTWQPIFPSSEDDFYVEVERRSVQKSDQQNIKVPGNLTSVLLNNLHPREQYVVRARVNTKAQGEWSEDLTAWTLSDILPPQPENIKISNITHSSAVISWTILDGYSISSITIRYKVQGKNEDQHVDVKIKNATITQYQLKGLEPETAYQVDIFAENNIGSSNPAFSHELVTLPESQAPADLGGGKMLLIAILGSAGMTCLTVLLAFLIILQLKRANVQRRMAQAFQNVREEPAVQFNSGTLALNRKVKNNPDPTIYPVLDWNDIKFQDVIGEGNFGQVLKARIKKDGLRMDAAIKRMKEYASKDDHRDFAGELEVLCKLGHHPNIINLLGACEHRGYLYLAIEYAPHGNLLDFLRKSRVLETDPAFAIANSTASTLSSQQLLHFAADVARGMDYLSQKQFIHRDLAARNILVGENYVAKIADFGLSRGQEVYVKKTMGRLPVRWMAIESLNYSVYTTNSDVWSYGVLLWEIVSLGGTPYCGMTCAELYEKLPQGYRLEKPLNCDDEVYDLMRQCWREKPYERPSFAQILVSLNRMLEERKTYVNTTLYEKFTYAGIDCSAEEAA
UniProt P35590: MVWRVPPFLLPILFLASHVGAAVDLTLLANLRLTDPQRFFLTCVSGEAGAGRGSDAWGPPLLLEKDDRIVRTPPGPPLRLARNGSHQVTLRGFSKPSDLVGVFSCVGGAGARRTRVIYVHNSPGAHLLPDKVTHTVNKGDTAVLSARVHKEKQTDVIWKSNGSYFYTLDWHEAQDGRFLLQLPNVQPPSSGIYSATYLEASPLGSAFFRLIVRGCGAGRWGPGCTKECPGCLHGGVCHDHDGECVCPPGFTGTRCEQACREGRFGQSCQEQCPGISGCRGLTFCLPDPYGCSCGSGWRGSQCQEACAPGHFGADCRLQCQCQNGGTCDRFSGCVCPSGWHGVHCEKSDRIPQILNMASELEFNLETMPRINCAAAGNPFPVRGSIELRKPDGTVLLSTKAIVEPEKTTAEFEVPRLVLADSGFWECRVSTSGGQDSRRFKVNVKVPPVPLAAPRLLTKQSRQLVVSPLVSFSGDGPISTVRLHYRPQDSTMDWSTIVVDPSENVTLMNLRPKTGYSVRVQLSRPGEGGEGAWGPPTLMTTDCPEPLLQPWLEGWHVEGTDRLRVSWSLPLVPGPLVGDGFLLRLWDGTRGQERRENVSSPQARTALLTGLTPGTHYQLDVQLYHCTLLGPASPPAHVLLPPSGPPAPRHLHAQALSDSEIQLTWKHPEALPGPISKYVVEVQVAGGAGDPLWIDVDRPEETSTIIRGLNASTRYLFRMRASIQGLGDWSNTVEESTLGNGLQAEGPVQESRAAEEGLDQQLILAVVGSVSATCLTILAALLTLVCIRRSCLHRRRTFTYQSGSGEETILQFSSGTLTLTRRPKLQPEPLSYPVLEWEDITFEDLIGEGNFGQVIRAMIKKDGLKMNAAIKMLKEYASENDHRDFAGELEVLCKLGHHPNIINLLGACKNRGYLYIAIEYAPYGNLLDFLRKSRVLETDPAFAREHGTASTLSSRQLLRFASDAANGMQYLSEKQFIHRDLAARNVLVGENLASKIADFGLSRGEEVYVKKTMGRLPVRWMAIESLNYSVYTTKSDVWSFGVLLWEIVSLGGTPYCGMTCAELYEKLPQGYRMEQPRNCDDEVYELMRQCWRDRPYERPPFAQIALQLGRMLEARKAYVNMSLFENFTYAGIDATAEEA

Key:
Human Tie-2 (human) [1] = target: Human Tie-2 (human) (UniProt Q02763); test: co-immunoprecipitation from HUVECs after DTSSP cross-linking
Human Tie-2 (human) [2] = target: Human Tie-2 (human) (UniProt Q02763); test: summary sentence that refers to the co-immunoprecipitation in Example 2
Tie-1-V5 (human) = Tie-1-V5 (human) (UniProt P35590); test: co-immunoprecipitation from 293T cells transfected with Tie-1-V5 and Tie-2-Myc, after COMP-Ang-1 stimulation and DTSSP cross-linking of cell surface proteins

Substance	binding (Human Tie-2 (human) [1])	binding (Human Tie-2 (human) [2])	binding (Tie-1-V5 (human))
Human Tie-1 (from UniProt P35590 25-1138) (receptor)	binds	binds	–
Tie-2-Myc (from UniProt Q02763 23-1124) (receptor)	–	–	binds
